Like-named read-outs stand apart in the source and are kept apart here. No constants are given. Whether binding was seen depends on the method and setting. Binding seen in cells or lysates may run through a third protein. Some results given as binding are weak or reduced against the parent protein; the word gives no strength. For some assays here: Tags and fused reporters may be left off the sequences shown.
Tests used:
Assay in all cases: co-IP
[1] = biological target: T1, Flag-tagged SRSF7 (in 293T cells) (UniProt Q16629)
T1 sequence: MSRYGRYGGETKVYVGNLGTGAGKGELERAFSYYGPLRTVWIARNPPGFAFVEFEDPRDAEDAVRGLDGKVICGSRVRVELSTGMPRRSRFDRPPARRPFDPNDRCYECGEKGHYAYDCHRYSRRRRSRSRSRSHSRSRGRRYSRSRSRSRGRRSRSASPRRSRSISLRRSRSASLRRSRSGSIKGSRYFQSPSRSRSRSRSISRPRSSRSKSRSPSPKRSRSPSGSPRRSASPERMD

By UniProt entry, the sequences of proteins in these tests, tags left out.
UniProt Q86U44, whole entry: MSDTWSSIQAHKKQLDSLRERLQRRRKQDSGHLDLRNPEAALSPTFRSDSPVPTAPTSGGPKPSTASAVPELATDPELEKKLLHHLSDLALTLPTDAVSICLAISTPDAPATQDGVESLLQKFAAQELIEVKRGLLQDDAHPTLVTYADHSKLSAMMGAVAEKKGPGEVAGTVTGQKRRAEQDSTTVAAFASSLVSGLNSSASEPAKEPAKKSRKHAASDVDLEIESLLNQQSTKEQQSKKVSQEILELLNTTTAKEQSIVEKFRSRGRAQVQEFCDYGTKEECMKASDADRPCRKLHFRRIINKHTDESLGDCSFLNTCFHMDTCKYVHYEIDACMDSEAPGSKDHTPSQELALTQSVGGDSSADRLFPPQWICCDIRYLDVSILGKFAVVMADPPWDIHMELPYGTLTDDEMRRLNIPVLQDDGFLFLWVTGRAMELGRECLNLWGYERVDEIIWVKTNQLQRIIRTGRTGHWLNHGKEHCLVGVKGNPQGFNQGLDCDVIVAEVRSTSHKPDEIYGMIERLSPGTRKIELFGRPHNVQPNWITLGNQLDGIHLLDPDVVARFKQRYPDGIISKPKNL

[2] = biological target: T2, Flag-tagged SRSF7 (serine/arginine-rich splicing factor 7), full length (UniProt Q16629)
T2 sequence: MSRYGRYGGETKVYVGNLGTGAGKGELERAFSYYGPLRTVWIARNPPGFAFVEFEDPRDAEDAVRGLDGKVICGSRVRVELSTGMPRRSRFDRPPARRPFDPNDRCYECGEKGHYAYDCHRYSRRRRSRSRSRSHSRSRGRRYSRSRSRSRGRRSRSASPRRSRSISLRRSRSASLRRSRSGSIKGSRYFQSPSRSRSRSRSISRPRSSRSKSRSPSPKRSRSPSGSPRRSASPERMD

[3] = biological target: T2, Flag-tagged SRSF7 (serine/arginine-rich splicing factor 7), full length; remark: listed apart in the source
[4] = biological target: Flag-tagged METTL3, full length (UniProt Q86U44)
[5] = biological target: T3, Flag-tagged WTAP, full length (UniProt Q15007)
T3 sequence: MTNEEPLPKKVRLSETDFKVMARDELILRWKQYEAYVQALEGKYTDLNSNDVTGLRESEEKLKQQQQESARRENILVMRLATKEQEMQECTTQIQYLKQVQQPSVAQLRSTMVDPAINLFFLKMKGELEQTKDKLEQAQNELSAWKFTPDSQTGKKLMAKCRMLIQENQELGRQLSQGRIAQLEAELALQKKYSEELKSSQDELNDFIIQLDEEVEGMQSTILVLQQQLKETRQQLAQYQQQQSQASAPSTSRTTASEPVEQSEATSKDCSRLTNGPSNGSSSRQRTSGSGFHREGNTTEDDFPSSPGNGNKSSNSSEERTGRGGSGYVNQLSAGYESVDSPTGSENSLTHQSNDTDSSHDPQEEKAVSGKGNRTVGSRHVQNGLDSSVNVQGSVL

B1: endogenous METTL14 (293T cells) (protein, UniProt Q9HCE5 1-456)
chain: MDSRLQEIRERQKLRRQLLAQQLGAESADSIGAVLNSKDEQREIAETRETCRASYDTSAPNAKRKYLDEGETDEDKMEEYKDELEMQQDEENLPYEEEIYKDSSTFLKGTQSLNPHNDYCQHFVDTGHRPQNFIRDVGLADRFEEYPKLRELIRLKDELIAKSNTPPMYLQADIEAFDIRELTPKFDVILLEPPLEEYYRETGITANEKCWTWDDIMKLEIDEIAAPRSFIFLWCGSGEGLDLGRVCLRKWGYRRCEDICWIKTNKNNPGKTKTLDPKAVFQRTKEHCLMGIKGTVKRSTDGDFIHANVDIDLIITEEPEIGNIEKPVEIFHIIEHFCLGRRRLHLFGRDSTIRPGWLTVGPTLTNSNYNAETYASYFSAPNSYLTGCTEEIERLRPKSPPPKSKSDRGGGAPRGGGRGGTSAGRGRERNRSNFRGERGGFRGGRGGAHRGGFPPR
- binding [1]: binds

B2: endogenous METTL14 (U87MG cells) (protein, UniProt Q9HCE5 1-456)
chain: MDSRLQEIRERQKLRRQLLAQQLGAESADSIGAVLNSKDEQREIAETRETCRASYDTSAPNAKRKYLDEGETDEDKMEEYKDELEMQQDEENLPYEEEIYKDSSTFLKGTQSLNPHNDYCQHFVDTGHRPQNFIRDVGLADRFEEYPKLRELIRLKDELIAKSNTPPMYLQADIEAFDIRELTPKFDVILLEPPLEEYYRETGITANEKCWTWDDIMKLEIDEIAAPRSFIFLWCGSGEGLDLGRVCLRKWGYRRCEDICWIKTNKNNPGKTKTLDPKAVFQRTKEHCLMGIKGTVKRSTDGDFIHANVDIDLIITEEPEIGNIEKPVEIFHIIEHFCLGRRRLHLFGRDSTIRPGWLTVGPTLTNSNYNAETYASYFSAPNSYLTGCTEEIERLRPKSPPPKSKSDRGGGAPRGGGRGGTSAGRGRERNRSNFRGERGGFRGGRGGAHRGGFPPR
- binding [2]: binds
- binding [3]: binds

B3: endogenous SRSF7 (U87MG cells) (protein, UniProt Q16629 1-238)
chain: MSRYGRYGGETKVYVGNLGTGAGKGELERAFSYYGPLRTVWIARNPPGFAFVEFEDPRDAEDAVRGLDGKVICGSRVRVELSTGMPRRSRFDRPPARRPFDPNDRCYECGEKGHYAYDCHRYSRRRRSRSRSRSHSRSRGRRYSRSRSRSRGRRSRSASPRRSRSISLRRSRSASLRRSRSGSIKGSRYFQSPSRSRSRSRSISRPRSSRSKSRSPSPKRSRSPSGSPRRSASPERMD
- binding [4]: binds
- binding [5]: binds

From paper doi:10.1101/2021.10.11.463901
